From publication doi:10.1101/2023.03.14.532574

B1: Wdr91 (protein, UniProt Q7TMQ7 1-748)
chain: MAEAVERTDELVREYLLFRGFTHTLRQLDAEIKADKEKGFRVDKIVDQLQQLMQVYDLAALRDYWSYLERRLFSRLEDIYRPTINKLKTSLFRFYLVYTIQTNRNDKAQEFFAKQATELQNQAEWKDWFVLPFLPSPDTNPTFATYFSRQWADTFIISLHNFLSVLFQCMPVPVILNFDAECQRTNQVQEENEVLRQKLFALQAEIHRLKKEEQQQEEEAAALVQHKLPPYVSSMDRLGDSELALVCSQRPASLSQSPRVGFLSSLLPQSKKSPSRLSPAQGPPQAQSSAKKDSFSSQATKGKDSVPGAKDGKSLLSGPVPGEASWTHQRQRRLQDHGKERRELLSTSSSQSQCAERKPEVSGAEAEPCLELHMGPVEVLARVSTAGSEGDRPEQPFIVLSQEEYGEHHSSIMHCRVDCSGRRVASLDVDGVIKVWSFNPIMQTKASSISKSPLLSLEWATKRDRLLLLGSGVGTVRLYDTEAKKNLCEININDDMPRILSLACSPNGASFVCSAAAPSLTSQTDSSAPDIGSKGMNQVPGKLLLWDTKTMKQQLQFSLDPEPIAINCTAFNHNGNLLVTGAADGVIRLFDMQQHECAMSWKAHCGEVYSVEFSCDENAVYSIGEDRKFIQWNIHKSGLKVSESNLPSDATGPFVLSGYSGYKQVQVPRGRLFAFDSEGNYMLTCSATGGLIYKLGSEEKVLENCLSLGGHRAPVVTVDWSTAMDCGTCLTASMDGKIKLTTLLAHKL
B2: Dynlrb2 (protein, UniProt Q9DAJ5 1-96)
chain: MTEVEETLKRIQSHKGVIGTMVVNAEGIPIRTTLDNSTTVQYAGLLHQLTMKAKSTVRDIDPQNDLTFLRIRSKKHEIMVAPDKEYLLIVIQNPCE
B3: Ndel1 (protein, UniProt Q9ERR1 1-345)
chain: MDGEDIPDFSSLKEETAYWKELSLKYKQSFQEARDELVEFQEGSRELEAELEAQLVQAEQRNRDLQADNQRLKYEVEALKEKLEHQYAQSYKQVSVLEDDLSQTRAIKEQLHKYVRELEQANDDLERAKRATIVSLEDFEQRLNQAIERNAFLESELDEKESLLVSVQRLKDEARDLRQELAVRERQQEVTRKSAPSSPTLDCEKMDSAVQASLSLPATPVGKGTENSFPSPKAIPNGFGTSPLTPSARISALNIVGDLLRKVGALESKLAACRNFAKDQASRKSYVPGSVNCGVMNSNGPECPRSGRATFFHKGAVNGFDPAPPPPGLGSSRPSSAPGMLPLSV
B4: Aftiphilin of the mouse brain extract (protein, UniProt Q80WT5 1-931)
chain: MEPDIIRMYSSSPPPLDNGAEDDEEDEFGEFGGFSEVSPSGVGFVDFDTPDYTRPKEDFVPSNHFMPIHEYSEDVDSLTSFKSVQNGNDKDITAELSTPVKSQSDVVLSTTSKEMIPSKTLDPSIDGMESLEDLDKVVVQGPSTGQLRSFSPGDFRTDKNIVHQTKQLESCNGEKPPCLEILTNGFAGLETVNPQGTDDLDNVADSKGSKPLNTCGTECILESAASHATEFADFSTFSQTERTQLEEIECPVLNDGDTLTIQGNSKGPRVKELNCVKEVTLDGSFEDTGNTEREHQVCVSEIHAVADRGLSVEKQDLQTLQQDEFLNSRIQSEAWSLVDSSENSEAITKERCKMEKNDLFASKCADLSMDSVKTSDVNEIGSSKEENRKLTNPKSPDPDPTGQNALDDSAASMKNGDSGNGFVTCHDTNEDDFGDFGTANGTTPPFVTSTQDSMSDVTFEDSSEHFLHLSEPGDDFGEFEDTNAVSCQEEMRFTESDLRQTSDGLSEECPLAGESGGKDSKPDSKLKNGQDSEFGDFDSVPNTQGSAFQDSDDFADFSSAGPSQAVDWNAFEDEQKDGCSWAAFGDQQETESHHLKEVWQSQRTDETMGTLGTPKMHSVSSAASKGAVASGHLQEPGTSVQTALLNRLERIFEACFPSVFVPDVEEEVSSLKHLLETHSSPAKTREALADRGELRGVWTELQDIHDAHGLRYQWGGSHSNKKLLCSLGIDTRNILFTGNKKQPVIVPMYAAGLGMLEPTKEPLKPLSAAEKIASIGQTTVMTPEINTCTSDPFQESLPPVQFDWSSSGLTNPLDASGGSTLLNLDFFGPVDDSSSSSSTIPGVDPELYELTTAKLETSTSSLRVTDAFAKLMSTVEKTSTSTRKPKREEHLSEEAMKVIASLPDLTFMHAKVLMFPATLTPSMSSQEQADA
B5: γ-synergin of the mouse brain extract (protein, UniProt Q5SV85 1-1306)
chain: MALRPGAGASGAAGAGAGPGGAGSFMFPVAGGMRPPQAGLIPMQQQGFPMVSVMQPNMQGMMGMNYSSQMSQGPIAMQAGIPMGPMPAAGVPFLGQPPFLSMRPAGPQYTPDMQKQFAEEQQKRFEQQQKLLEEERKRRQFEEQKQKLRLLSSVKPKTGEKNRDDALEAIKGNLDGFSRDAKMHPTPASHPKKQGPSLEEKLLVSCDVSASGQEHIKLNTPDAGHKAIVPGSSKNCPGLMAHNRGAVDGCVSGPASAEAEKTSDQTLSKEESGVGVFPSQDPAQSRMPPWIYNESLVPDAYKKILETTMTPTGIDTAKLYPILMSSGLPRETLGQIWALANRTTPGRLTKEELYTVLAMVAVTQRGVPAMSPDALSQFPAAPIPTLSGFPMTLPTPVSQPTAMPSGPTGSMPLTLGQPIMGINLVGPVGGAAAPTSSGFMPAYPSNQVGKTEEDDFQDFQDASKSGSIDDSFTDFQEMPASSKTSNSQHGNSAPSLLIPFPGTKASTDKYAVFKGISTDKPSENPASFGESGDKYSAFRELEQTTDSKPLGESFAEFRSTGTDDGFTDFKTADSVSPLEPPTKDTFPSAFASGAAQQTQTQVKTPLNLEDLDMFSSVDCSGEKQVPFSATFSTAKSVSTRPQPAGSAAASAALASTKTSSLADDFGEFNLFGEYSNPASAGEQDDFADFMAFGNSSISSEPKASDKYEALREEVSPSPLSSSTVEGAQHPPAAATKYDVFKQLSLEGAGLAMEEFKENTSSTKSEDDFADFHSSKFSSTSSDKSLGEKAVAFRHAKEDSSSVKSLDLPSIGGSSVGKEDSEDALSVQFDMKLADVGGDLKHVMSDSSLDLPTVSGQHPPAADTEDLSCAAFGSCSSHFTVSTLTSCEWSDRADALQGRKLSPFVLSAGSRSFSATSNLHTKEISFGSSENITMSSLSKGSALASEDALPETAFPAFASFKDMMPQTTEQKEFESGDFQDFTRQDMPTVDRSQETSCPSPASSVASHETPKEGADDFGEFQSEKSKISKFDFLVANSQSKMKSSEEMIKSELATFDLSVQGSHKRSLSLGDKEISRSSPSPALEQPFRDRSNTLSERAALPVIRDKYKDLTGEVEENERYAYEWQRCLGSALDVIKKANDTLNGISSSAVCTEVIQSAQGMEYLLGVVEVYRVTKRVELGIKATAVCSEKLQQLLKDIDKVWNNLIGFMSLATLTPDENSLDFSSCMLRPGIKNAQELACGVCLLNVDSRSRKEETPAEEQPKKAFNSETDSFKLAYGGHQYHASCANFWINCVEPKPPGLLLPDLL

Experiments:
[1] = molecular target: recombinant human dynein tail complex (human); test: affinity purification with mass spectrometry
[2] = molecular target: recombinant human dynein tail complex (human); test: condition: only without exogenous dynactin in the extract
[3] = molecular target: recombinant human dynein tail complex (human); test: affinity purification with mass spectrometry; remark: listed apart in the source

Binder | binding [1] | binding [2] | binding [3]
B1 | binds | no binding | 
B2 | binds |  | 
B3 | binds |  | 
B4 | no binding |  | no binding
B5 | no binding |  | no binding

These are yes or no findings as the source states them, for the method shown. Binding seen in cells or lysates may run through a third protein. A yes stands for co-enrichment or nearness to the bait. Other partners may have been found. No binding means not detected with the bait.
